PubChem BioAssay AID720505 – Drosophila RNAi Screening Center | 2013
The deposit covers about 20,000 reagents; this is an unselected part of those that have a named target and a result. In the full data, about 2,100 (10%) got an active call. 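Raw plate signals without normalisation; calls rest on control-based scores that were not deposited; replicate 2 separates called from uncalled poorly.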 Names joined by + are all predicted targets of the reagent. No sequences are given here. The record does not give: the amount of reagent, the time to read-out.

Test: 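Fly regulators or components of the CRAC channel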 (primary screen)
System: Drosophila S2R+ cells
Reagents: long dsRNA against Drosophila genes
Conditions: thapsigargin (2 µM) in calcium-free buffer to empty internal stores, then 2 mM calcium added back
Measured: 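Stores emptied by 2 µM thapsigargin without calcium, then 2 mM calcium re-added; fluo-4 fluorescence followed by FLIPR in 384-well plates, per-well averaged endpoint, raw; two screen passes, some wells retested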
Scale: calcium signal and retest calcium signal: higher = more calcium entry after store depletion
Rule for the call: 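About 1500 genes called as lowering calcium entry, by varying amounts, judged against per-plate control wells with STIM1 as positive and Rho1 as negative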
Meaning of the calls: active = called as lowering calcium entry; inactive = not called

no.	target gene	dsRNA	calcium signal, replicate 1	calcium signal, replicate 2	retest calcium signal, replicate 1	retest calcium signal, replicate 2	Call
1	Tsp66E	DRSC09683	95.1	84.4			inactive
2	CG13829	DRSC14679	266	116			inactive
3	SmydA-5	DRSC04867	164	214			inactive
4	Cth	DRSC07422	80	105			active
5	alien + CG17906	DRSC02641	114	148			inactive
6	dally	DRSC11338	90.2	145			inactive
7	CG9673	DRSC20202	86.8	145			inactive
8	Trs31	DRSC05975	138	122			inactive
9	CG7341	DRSC10818	144	105			inactive
10	gprs	DRSC06761	131	142			inactive
11	GPHR	DRSC07075	121	135			inactive
12	CG13321	DRSC06358	68.6	90.8			inactive
13	Cap-D2	DRSC15401	71.8	124			inactive
14	TwdlS	DRSC14737	109	143			inactive
15	CG30344	DRSC22510	83.4	153			inactive
16	spn-A	DRSC16812	191	144			inactive
17	CG8366	DRSC07153	97.9	95			inactive
18	ND-23	DRSC15526	87.3	189			inactive
19	CG5386	DRSC15788	188	160			inactive
20	Jhbp16	DRSC15039	183	214			inactive
21	CG6429	DRSC06986	84.4	81.3			inactive
22	Hsp70Bb + Hsp70Ba + Hsp70Bc + 1 more	DRSC21247	137	108			inactive
23	Hsp70Bb + Hsp70Ba + Hsp70Bc + 1 more	DRSC21248	206	103			inactive
24	CG12516	DRSC14524	153	142			inactive
25	Tsf1	DRSC20296	111	144			inactive
26	CG3604	DRSC00618	161	101			inactive
27	ps	DRSC15149	91.3	81.8			inactive
28	ps	DRSC15151	97.4	82.2			inactive
29	ps	DRSC15152	125	83.9			inactive
30	ps	DRSC16388	111	77.9			inactive
31	ps	DRSC22989	44	78.7			active
32	mRpL24	DRSC03113	93.7	146			inactive
33	l(3)72Dr	DRSC10478	95	156			inactive
34	Edc3	DRSC10620	119	96.6			inactive
35	pygo	DRSC14322	69.9	121			inactive
36	Rpn8	DRSC04624	92.6	135			active
37	Fbw5	DRSC03146	155	92.2			inactive
38	CG14864	DRSC14987	135	139			inactive
39	MetRS	DRSC22533	100	79.2			inactive
40	eIF4A	DRSC03526	148	97.7			inactive
41	Lcp9	DRSC04287	65.2	178			active
42	Crg-1	DRSC22882	156	166			inactive
43	CG1090	DRSC12150	97.6	81.5			inactive
44	CG1090	DRSC21604	164	86.5			inactive
45	CG2124	DRSC18208	76.1	104			inactive
46	Lamtor3	DRSC02815	91.8	142			inactive
47	CG6592	DRSC10669	59.4	62.1			inactive
48	Ir67c	DRSC22097	88.7	226			inactive
49	ftz-f1	DRSC11347	62.5	102			inactive
50	CG30010	DRSC05193	86.7	157			inactive
51	CG7099	DRSC03006	101	131			inactive
52	KLHL18	DRSC15496	151	104			inactive
53	CAH3	DRSC17776	265	90.7			inactive
54	nau	DRSC17011	146	124			inactive
55	Cpr49Ah	DRSC07204	101	180			inactive
56	Drgx	DRSC00278	182	122			inactive
57	Drgx	DRSC00537	124	81.7			inactive
58	CG14926	DRSC02409	165	155			inactive
59	Gp150	DRSC04618	56.1	61.3	57.7	197	active
60	CG14695	DRSC14918	137	100			inactive
61	NANS	DRSC15743	140	112			inactive
62	CG32669	DRSC18864					inactive
63	Teh3	DRSC08537	81.8	41.3			inactive
64	JYalpha (retired record) + JYalpha	DRSC21700	141	69.3			inactive
65	CG32112	DRSC09815	78.6	84.6			inactive
66	Eig71Ec	DRSC11150	97	130			inactive
67	CG34328	DRSC19256	82.7	117			inactive
68	Atg14	DRSC14421	84.9	98.6			inactive
69	HtrA2	DRSC16425	120	100			inactive
70	Nulp1	DRSC09677	94.1	116			inactive
71	CG14125	DRSC10129	141	119			inactive
72	mRpL47	DRSC16827	96.7	92.7			inactive
73	Surf1	DRSC11295	93.9	74			inactive
74	Surf1	DRSC11394	111	109			inactive
75	Galt	DRSC03161	131	247			inactive
76	lmd	DRSC15618	147	249			inactive
77	CG8135 + BBIP1	DRSC12739					active
78	CG8135 + BBIP1	DRSC16384	61.3	93.3			active
79	tsg	DRSC20380	121	90			inactive
80	CG3589	DRSC04392	51.8	143			active
81	CG13407	DRSC14583	231	175			inactive
82	Liprin-beta	DRSC09795	118	101			inactive
83	Liprin-beta	DRSC23339	90.1	131			inactive
84	Arpc1	DRSC03438	99.8	129			inactive
85	CG32452	DRSC22250	88.4	136			inactive
86	Gr98b	DRSC21675	226	122			inactive
87	Idgf3	DRSC03351	89.5	120			inactive
88	Rad17	DRSC16811	139	206			inactive
89	CG31913	DRSC00892	98.2	100			inactive
90	CG32087	DRSC10806	44.9	67.8			inactive
91	Arp2	DRSC19332	99.8	115			inactive
92	CG12713	DRSC09900	136	86.5			inactive
93	Nha1	DRSC02109	88.5	260			inactive
94	CG32436	DRSC11683	95.4	115			inactive
95	CG32436	DRSC11796	83.5	155			inactive
96	PKD	DRSC16200	144	129			inactive
97	gdrd	DRSC10020	92.8	118			inactive
98	CG6834	DRSC16125	151	105			inactive
99	CG31678	DRSC02618	99	98.3			inactive
100	CG31678	DRSC02619	71.2	145			inactive
101	CG11529	DRSC09839	79.8	87.3			inactive
102	Pkn	DRSC06809	127	127			inactive
103	Pkn	DRSC06810	131	117			inactive
104	Rab9Db + Rab9Fa	DRSC18445	86.9	112			inactive
105	CG43367 + asRNA:CR32252	DRSC21715	147	93.9			inactive
106	Arf1	DRSC11606	114	95.5			inactive

Records listed so far whose target name begins with S or s (4):
target gene	dsRNA	calcium signal, replicate 1	calcium signal, replicate 2	retest calcium signal, replicate 1	retest calcium signal, replicate 2	Call
SmydA-5	DRSC04867	164	214			inactive
spn-A	DRSC16812	191	144			inactive
Surf1	DRSC11295	93.9	74			inactive
Surf1	DRSC11394	111	109			inactive
